Measurements reported in PubChem BioAssay AID1259314 (Drosophila RNAi Screening Center, 2017).
Screen: 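Transmembrane protein genes affecting ATP after manganese overload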 (primary screen). System: Drosophila S2R+ cells. Knock-down reagent: long dsRNA against Drosophila genes. Timing: 5 days (4 days knock-down, then 1 day metal exposure). Treatment: manganese chloride added to 15 mM for 24 hours. Measured: 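Luciferase ATP signal used as a proxy for viable cell number, reported as one averaged z-score per dsRNA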. Direction: mean ATP z-score: higher = more ATP than the plate average, more viable cells under manganese. Call rule: 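a mean ATP z-score past 1.5 in either direction is called active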. Meaning of the calls: active = strong ATP change, up or down; inactive = no strong ATP change.
The whole screen tested about 3,100 reagents; below is an unselected part. 289 of all reagents (9.3%) count as active. 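Active includes both higher and lower ATP than plate average; check the z-score sign for direction.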 Names joined by + are all predicted targets of the reagent. Not given: the amount of reagent.

With Or47b [DRSC07492], what was measured?
mean ATP z-score: -0.557; activity call: inactive

Which result is listed for Or47b [DRSC39664]?
mean ATP z-score: -0.504; activity call: inactive

What did the screen give for fj [DRSC07619]?
mean ATP z-score: -0.0232; activity call: inactive

With fj [DRSC27535], what does the deposit list?
mean ATP z-score: -1.16; activity call: inactive

With TM9SF2 [DRSC03197], what does the deposit list?
mean ATP z-score: 0.366; activity call: inactive

With TM9SF2 [DRSC39485], what was measured?
mean ATP z-score: -0.539; activity call: inactive

Which result is listed for CG42260 [DRSC04385]?
mean ATP z-score: 0.111; activity call: inactive

For CG31141 [DRSC13646], what was measured?
mean ATP z-score: -1.31; activity call: inactive

With CG31141 [DRSC29508], what was measured?
mean ATP z-score: 0.755; activity call: inactive

For CG3803 [DRSC04420], what does the deposit list?
mean ATP z-score: 0.535; activity call: inactive

What is on record for CG8051 [DRSC20077]?
mean ATP z-score: -0.245; activity call: inactive

Which result is listed for CG8051 [DRSC26855]?
mean ATP z-score: -1; activity call: inactive

With TrissinR [DRSC25084], how do the results read?
mean ATP z-score: 1.99; activity call: active

Which result is listed for TrissinR [DRSC26283]?
mean ATP z-score: 0.556; activity call: inactive

Which result is listed for CG9981 [DRSC20225]?
mean ATP z-score: 0.774; activity call: inactive

With Gr92a [DRSC21631], how do the results read?
mean ATP z-score: -0.0917; activity call: inactive

With Gr92a [DRSC39582], what was measured?
mean ATP z-score: -0.156; activity call: inactive

Which result is listed for Gr43a [DRSC06658]?
mean ATP z-score: -0.275; activity call: inactive

With Gr43a [DRSC39580], what does the deposit list?
mean ATP z-score: 1.36; activity call: inactive

Which result is listed for Vamp7 [DRSC06599]?
mean ATP z-score: 0.222; activity call: inactive

How did the screen score CG17036 [DRSC02564]?
mean ATP z-score: 0.843; activity call: inactive

For CG17036 [DRSC28145], what does the deposit list?
mean ATP z-score: 0.0536; activity call: inactive

For CG4459 [DRSC15582], what does the deposit list?
mean ATP z-score: -0.0518; activity call: inactive

With CG9270 [DRSC03182], how do the results read?
mean ATP z-score: -1.12; activity call: inactive

Which result is listed for Octalpha2R [DRSC13319]?
mean ATP z-score: -0.582; activity call: inactive

What did the screen give for Octalpha2R [DRSC15314]?
mean ATP z-score: -0.142; activity call: inactive

How did the screen score Ant2 [DRSC26446]?
mean ATP z-score: -1.75; activity call: active

For Or67a [DRSC11240], what was measured?
mean ATP z-score: -0.94; activity call: inactive

What is on record for CG30160 + Tsp42Eb [DRSC04961]?
mean ATP z-score: 0.945; activity call: inactive

For CG30160 + Tsp42Eb [DRSC06791], what does the deposit list?
mean ATP z-score: 1.45; activity call: inactive

Which result is listed for nAChRalpha1 [DRSC13672]?
mean ATP z-score: 0.124; activity call: inactive

How did the screen score nAChRalpha1 [DRSC17008]?
mean ATP z-score: -0.253; activity call: inactive

With CG11155 [DRSC17184], how do the results read?
mean ATP z-score: -0.686; activity call: inactive

For CG11155 [DRSC17205], what was measured?
mean ATP z-score: -0.106; activity call: inactive

With CG11155 [DRSC29324], how do the results read?
mean ATP z-score: 0.904; activity call: inactive

How did the screen score CG42322 [DRSC15112]?
mean ATP z-score: -0.0992; activity call: inactive

Which result is listed for CG42322 [DRSC15113]?
mean ATP z-score: 0.772; activity call: inactive

With spi [DRSC03618], what was measured?
mean ATP z-score: -0.26; activity call: inactive

What did the screen give for spi [DRSC29414]?
mean ATP z-score: -0.615; activity call: inactive

For CG9855 [DRSC12344], what does the deposit list?
mean ATP z-score: -0.279; activity call: inactive

For Or33b [DRSC03387], what was measured?
mean ATP z-score: -0.582; activity call: inactive

Which result is listed for CG7255 [DRSC10790]?
mean ATP z-score: -0.489; activity call: inactive

What did the screen give for TRAM [DRSC18178]?
mean ATP z-score: -0.18; activity call: inactive

With TRAM [DRSC18651], what does the deposit list?
mean ATP z-score: -0.32; activity call: inactive

With GrlHz [DRSC04424], how do the results read?
mean ATP z-score: -0.392; activity call: inactive

What is on record for GrlHz [DRSC39675]?
mean ATP z-score: 0.334; activity call: inactive

For Nup98-96 [DRSC14209], what was measured?
mean ATP z-score: 0.119; activity call: inactive

For Nup98-96 [DRSC14210], what does the deposit list?
mean ATP z-score: -1.09; activity call: inactive

Not a retest: 3 of the entries above.
TrissinR [DRSC26283] | mean ATP z-score = 0.556; activity call = inactive
CG9981 [DRSC20225] | mean ATP z-score = 0.774; activity call = inactive
Gr92a [DRSC21631] | mean ATP z-score = -0.0917; activity call = inactive
